Out of some 340,000 compounds screened, about 170 (0.05%) were called active. This list was built around the results that the source calls inconclusive (neither active nor inactive); the mix of calls is not that of the screen. The call rests on the fitted dose curve; in most records, active means well fitted inhibition curve with a large enough effect in the signal ratio, with a control signal flat (not every such curve was filed as active); inconclusive means small, poorly fitted or top-dose-only effect, or effect the other way, or a change in a side signal; inactive means flat fitted curve, though single readings scatter; the % refers to the signal ratio. A potency beside an inconclusive call is a rough fit, not a confirmed value.
Test: qHTS Assay to Find Inhibitors of Chronic Active B-Cell Receptor Signaling;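 on activity change, negative = inhibition: plate controls were basal doxycycline-induced cells for no effect and cells given 10 µM MG132 for full effect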
Settings: ABC-DLBCL IkBa-CBG/CBR reporter, luminescence ratio (green luciferase fused to IkBa over red control in TMD8 lymphoma cells), 4 h; activity change, negative = inhibition: at 46.1 µM (top of the series) unless noted
Summary of the method: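 Cell line TMD8 (human ABC DLBCL), stably expressing tet-inducible CBG68-IkBa fusion and CBR; IMDM/0.5% FBS; cpd up to 46 uM; dox induction, 4 h, 37C/5% CO2; dual luminescence; green/red ratio; MG132 control.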
With `O=C1c2ccccc2/C(=C\C#Cc2ccccn2)N1c1ccccc1` the activity change, negative = inhibition was inconclusive: -12.5%.
In the case of `COc1nc(NCCC2=CCCCC2)nc(OC)n1`, the activity change, negative = inhibition is reported as inconclusive: 7.57%.
For `CSc1ccccc1NC(=O)Nc1cccc(F)c1`, the Potency was inconclusive: 22.4 µM [falling, partial curve, poor fit].
For `CCOC(=S)SCC(=O)Nc1ncc(C)s1`, the activity change, negative = inhibition was inconclusive: 5.65%.
In the case of `COc1cc(NC(=O)COc2cccc(OC)c2)cc(OC)c1`, the activity change, negative = inhibition is reported as inconclusive: -8.21%.
In the case of `S=C(NCCc1ccccc1)N/N=C/c1ccccc1Cl`, the activity change, negative = inhibition is reported as inconclusive: 10.6%.
With `CC1CN(C(=O)COc2ccc3ccccc3c2Br)CC(C)O1` (stereo not given) the activity change, negative = inhibition was inconclusive: 1.36%.
With `COc1ccc(/C=C/c2nnc(NC(=O)COc3ccccc3)s2)cc1` the activity change, negative = inhibition was “inactive”.
For `O=C(Nc1ccccn1)c1ccc(Cl)c(S(=O)(=O)N2CCc3ccccc32)c1`, the activity change, negative = inhibition was “inactive”.
With `Cc1cc(NC(=O)CSc2ccc3nnc(-c4cccs4)n3n2)no1` the activity change, negative = inhibition was “inactive”.
In the case of `COc1ccc(-c2cc(C(=O)NC(C)C)no2)cc1`, the Potency is reported as inconclusive: 6.51 µM [falling, single point].
For `CN(C(=O)c1ccccc1)c1nc2ccccc2s1`, the Potency was inconclusive: 17.8 µM [falling, single point].
With `Cc1cc(NCCCn2ccnc2)n2nc(-c3ccc(Cl)cc3)cc2n1` the activity change, negative = inhibition was inconclusive: -19.9%.
In the case of `CCOc1nc(Nc2ccccc2F)nc(OCC)n1`, the Potency is reported as inconclusive: 20 µM [falling, partial curve, poor fit].
In the case of `COc1ccc(N2C(=S)NC3N2C(=S)NC3(C)c2ccccc2)cc1` (stereo not given), the Potency is reported as inconclusive: 35.5 µM [falling, single point].
With `Cc1nn(CC(=O)Nc2ccccn2)c(=O)c2ccccc12` the activity change, negative = inhibition was inconclusive: -2.21%.
For `CC(C)(CC(=O)NCc1ccc(Cl)cc1Cl)CC1=NS(=O)(=O)c2ccccc2N1`, the activity change, negative = inhibition was inconclusive: -21.6%.
For `CN1CCN(C(c2ccc(Br)cc2)c2cc(Cl)c3cccnc3c2O)CC1` (stereo not given), the Potency was inconclusive: 3.16 µM [falling, single point].
With `CN(C)c1ccc(/C=C/c2nc3ccccc3c(=O)n2-c2ccc(C(=O)O)cc2)cc1` the Potency was inconclusive: 28.2 µM [falling, single point].
For `COc1cccc2cc(C(=O)NCCc3ccccc3)oc12`, the Potency was inconclusive: 35.5 µM [falling, single point].
In the case of `O=C1c2ccccc2-c2onc3ccc(Oc4ccccc4)c1c23`, the activity change, negative = inhibition is reported as inconclusive: -15.6%.
In the case of `CN(CC(=O)Nc1ccccc1C(F)(F)F)C(=O)c1ccccc1Sc1ccccc1C#N`, the activity change, negative = inhibition is reported as inconclusive: -1.6%.
In the case of `CC(NS(=O)(=O)c1ccccc1)C(c1cccs1)N1CCOCC1` (stereo not given), the activity change, negative = inhibition is reported as inconclusive: 1.92%.
In the case of `COc1ccc(CCn2ccc(O)c(Cc3ccc(Cl)cc3)c2=O)cc1OC`, the activity change, negative = inhibition is reported as inconclusive: -3.34%.
For `Cn1c(=O)c2ncn(CC(=O)O)c2n(C)c1=O`, the activity change, negative = inhibition was inconclusive: 19.5%.
With `CN1CCC(N(C)C(=O)c2ccc(Cl)c(S(=O)(=O)Nc3cc(Cl)ccc3Cl)c2)CC1` the activity change, negative = inhibition was inconclusive: -0.208%.
For `O=C(CSc1nnc(Cc2cccs2)n1Cc1ccco1)Nc1cc(Cl)cc(Cl)c1`, the activity change, negative = inhibition was inconclusive: 4.88%.
In the case of `O=C(CNc1cccc(Cl)c1)NNC(=S)NCc1ccccc1`, the activity change, negative = inhibition is reported as “inactive”.
In the case of `CN(C)S(=O)(=O)c1cccc(C(=O)OCC(=O)c2c(N)n(C)c(=O)n(C)c2=O)c1`, the activity change, negative = inhibition is reported as inconclusive: 17.1%.
For `CCCCN1CN(S(=O)(=O)c2cccs2)c2nc3ccccc3nc21`, the Potency was inconclusive: 8.2 µM [rising, partial curve].
With `O=[N+]([O-])c1ccc(S(=O)(=O)Nc2ccc(-c3csc(-c4ccccc4)n3)cc2)cc1` the activity change, negative = inhibition was inconclusive: 9.78%.
With `Cc1cccc(/C=C/C(=O)c2cc(Br)ccc(=O)c2O)c1` the Potency was inconclusive: 18.4 µM [falling, single point].
For `C=CCOC(=O)C(C#N)c1nc2ccccc2nc1N1CCC(C(=O)OCC)CC1` (stereo not given), the activity change, negative = inhibition was inconclusive: 0.682%.
With `CCOc1ccccc1C(=O)Nc1cc(C(=O)NCCc2ccccc2)ccc1Cl` the activity change, negative = inhibition was inconclusive: 19.1%.
With `COc1cc(/C=N/NC(=O)c2ccncc2)ccc1O` the Potency was inconclusive: 35.5 µM [falling, single point] and the activity change, negative = inhibition was inconclusive: -12.8%.
With `CN(C(=O)c1ccc(NC(=O)C2CC=CCC2C(=O)O)cc1)c1ccccc1` (stereo not given) the activity change, negative = inhibition was inconclusive: 0.259%.
With `CC1CN(Cc2cn(C)nc2-c2ccc(Oc3ccccc3)cc2)CCN1C` (stereo not given) the Potency was inconclusive: 25.1 µM [falling, single point].
With `O=C1c2ccccc2C(=O)C1c1ccncc1` the Potency was inconclusive: 20.6 µM [falling, partial curve, poor fit].
With `Cc1ccnc(SCc2cc(=O)c(OC(=O)c3ccco3)co2)n1` the activity change, negative = inhibition was “inactive”.
In the case of `COc1cc([N+](=O)[O-])ccc1NC(=O)Cc1ccc(F)cc1`, the Potency is reported as inconclusive: 20.6 µM [rising, partial curve, poor fit].
With `CC[C@H]1OC(=O)C[C@@H](O)[C@H](C)[C@@H](O[C@@H]2O[C@H](C)C[C@H](N(C)C)[C@H]2O)[C@@H](CC=O)C[C@@H](C)C(=O)C=C[C@]2(C)O[C@H]2[C@@H]1C` the Potency was inconclusive: 15.8 µM [falling, partial curve].
For `Nn1cc(-c2ccccc2)nc1SCC(=O)N1CCN(S(=O)(=O)c2ccc3ccccc3c2)CC1`, the activity change, negative = inhibition was inconclusive: 7.62%.
In the case of `C/C(=N\NC(=O)c1ccn(C)n1)c1ccc(NC(=O)c2cccc(F)c2)cc1`, the activity change, negative = inhibition is reported as inconclusive: -13.9%.
For `COCC(C)NC(=O)c1noc2c1CCc1cc(OC)ccc1-2` (stereo not given), the Potency was inconclusive: 29.1 µM [falling, single point].
In the case of `O=C(O)CC1(CC(=O)Nc2ccc(C(F)(F)F)cc2)CCCC1`, the activity change, negative = inhibition is reported as inconclusive: 7.05%.
With `O=C(COc1ccc2ccc(=O)oc2c1)Nc1ccc(CCO)cc1` the activity change, negative = inhibition was “inactive”.
With `CCC(C)(C)NC(=O)C(c1cccn1C)N(Cc1ccccc1)C(=O)Cn1nnc2ccccc21` (stereo not given) the activity change, negative = inhibition was inconclusive: 3.65%.
With `COc1cc(C(=O)OCC(=O)N2CCCC2)cc2c1OCCO2` the activity change, negative = inhibition was inconclusive: 3.29%.
With `COc1cccc(CCNC(=O)CCc2nnc(Cc3cc(OC)ccc3OC)o2)c1` the activity change, negative = inhibition was “inactive”.
Potency means the concentration at half of the fitted maximal effect.
